# Publication PMC10716049
# Amino acid sequences for entries named in this document (tags omitted).
# UniProt P10275: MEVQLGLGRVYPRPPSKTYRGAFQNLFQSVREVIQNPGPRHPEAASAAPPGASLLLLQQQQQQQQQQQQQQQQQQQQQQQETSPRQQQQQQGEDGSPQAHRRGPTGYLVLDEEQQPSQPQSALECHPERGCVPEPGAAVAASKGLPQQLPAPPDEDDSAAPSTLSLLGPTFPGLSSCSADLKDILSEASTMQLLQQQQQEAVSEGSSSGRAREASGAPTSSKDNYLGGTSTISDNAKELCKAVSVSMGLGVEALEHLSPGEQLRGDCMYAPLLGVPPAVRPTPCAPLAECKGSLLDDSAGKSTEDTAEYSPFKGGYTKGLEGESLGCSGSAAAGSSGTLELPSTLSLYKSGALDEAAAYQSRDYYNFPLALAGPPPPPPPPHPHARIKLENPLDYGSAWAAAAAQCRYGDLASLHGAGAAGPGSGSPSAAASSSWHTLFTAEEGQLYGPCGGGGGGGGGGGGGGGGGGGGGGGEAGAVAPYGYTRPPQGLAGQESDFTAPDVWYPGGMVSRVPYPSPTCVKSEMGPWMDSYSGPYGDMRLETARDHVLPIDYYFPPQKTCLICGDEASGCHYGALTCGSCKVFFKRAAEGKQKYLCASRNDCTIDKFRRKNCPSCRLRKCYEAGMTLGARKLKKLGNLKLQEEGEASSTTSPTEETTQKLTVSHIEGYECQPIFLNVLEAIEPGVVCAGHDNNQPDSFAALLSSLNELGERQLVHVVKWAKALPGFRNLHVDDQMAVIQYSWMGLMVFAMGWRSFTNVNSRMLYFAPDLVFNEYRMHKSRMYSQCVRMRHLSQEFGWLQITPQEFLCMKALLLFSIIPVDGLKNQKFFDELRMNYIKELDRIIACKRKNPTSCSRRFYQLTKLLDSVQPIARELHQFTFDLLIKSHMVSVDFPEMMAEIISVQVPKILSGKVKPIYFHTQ
# UniProt P49790: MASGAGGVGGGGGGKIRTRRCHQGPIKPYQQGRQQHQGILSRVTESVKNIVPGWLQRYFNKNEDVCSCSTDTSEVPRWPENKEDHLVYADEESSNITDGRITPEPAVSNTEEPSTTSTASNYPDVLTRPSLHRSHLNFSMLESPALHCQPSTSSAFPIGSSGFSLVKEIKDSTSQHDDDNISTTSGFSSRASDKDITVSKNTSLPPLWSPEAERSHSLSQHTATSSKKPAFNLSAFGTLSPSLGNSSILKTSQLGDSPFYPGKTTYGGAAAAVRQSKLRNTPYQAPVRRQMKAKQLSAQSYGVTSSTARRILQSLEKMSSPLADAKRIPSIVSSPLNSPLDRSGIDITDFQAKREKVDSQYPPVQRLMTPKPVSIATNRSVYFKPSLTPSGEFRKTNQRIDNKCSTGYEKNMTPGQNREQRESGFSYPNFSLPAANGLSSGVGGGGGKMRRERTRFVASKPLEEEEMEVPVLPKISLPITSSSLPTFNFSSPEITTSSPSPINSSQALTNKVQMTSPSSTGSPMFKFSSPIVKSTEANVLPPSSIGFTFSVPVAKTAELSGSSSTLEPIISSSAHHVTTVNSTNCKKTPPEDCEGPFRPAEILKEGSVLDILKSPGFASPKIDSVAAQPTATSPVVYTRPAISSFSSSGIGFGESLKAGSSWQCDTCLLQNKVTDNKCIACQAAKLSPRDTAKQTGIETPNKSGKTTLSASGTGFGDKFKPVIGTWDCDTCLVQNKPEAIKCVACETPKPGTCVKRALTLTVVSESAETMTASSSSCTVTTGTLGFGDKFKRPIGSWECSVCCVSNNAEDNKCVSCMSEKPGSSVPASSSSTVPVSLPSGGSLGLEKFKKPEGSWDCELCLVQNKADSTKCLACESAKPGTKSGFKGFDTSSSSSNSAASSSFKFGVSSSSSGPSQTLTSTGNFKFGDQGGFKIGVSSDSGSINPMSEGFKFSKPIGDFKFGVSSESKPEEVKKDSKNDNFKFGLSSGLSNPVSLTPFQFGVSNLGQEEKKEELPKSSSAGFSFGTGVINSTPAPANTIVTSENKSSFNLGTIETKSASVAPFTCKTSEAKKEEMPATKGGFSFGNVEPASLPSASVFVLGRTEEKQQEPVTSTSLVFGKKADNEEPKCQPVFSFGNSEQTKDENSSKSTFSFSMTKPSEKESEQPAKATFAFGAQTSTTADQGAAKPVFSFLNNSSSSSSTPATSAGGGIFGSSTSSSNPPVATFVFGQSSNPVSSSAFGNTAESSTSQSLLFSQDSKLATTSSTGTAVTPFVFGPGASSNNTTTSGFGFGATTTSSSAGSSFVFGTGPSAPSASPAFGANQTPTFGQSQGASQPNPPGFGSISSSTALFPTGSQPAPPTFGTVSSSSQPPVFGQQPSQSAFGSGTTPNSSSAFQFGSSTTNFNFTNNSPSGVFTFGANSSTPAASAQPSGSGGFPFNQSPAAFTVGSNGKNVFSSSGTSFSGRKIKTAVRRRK
# No constants are given. Whether binding was seen depends on the method and setting. Binding seen in cells or lysates may run through a third protein.
# Target: FLAG-MTID-AR-WT (full-length wild-type androgen receptor fused to FLAG-tagged Mini-TurboID) (human) (UniProt P10275)
# Assay: proximity ligation; Duolink PLA in fixed DHT-treated PC3 cells expressing FLAG-MTID-AR WT or 22YtoS; antibodies to AR and to MED1, ARID1A or NUP153; 50 uM biotin and 1 nM DHT for 2 h
substance,measurement,value
NUP153 (from UniProt P49790 1-1475),binding,no binding
